Source: publication PMC11707020
These are yes or no findings as the source states them, for the method shown. In cells and extracts the contact can be indirect. Some results given as binding are weak or reduced against the parent protein; the word gives no strength.

Amino acid sequences for entries named in this document (tags omitted). A change or cut given only in a name is not applied to a line headed by its entry.
UniProt P40763: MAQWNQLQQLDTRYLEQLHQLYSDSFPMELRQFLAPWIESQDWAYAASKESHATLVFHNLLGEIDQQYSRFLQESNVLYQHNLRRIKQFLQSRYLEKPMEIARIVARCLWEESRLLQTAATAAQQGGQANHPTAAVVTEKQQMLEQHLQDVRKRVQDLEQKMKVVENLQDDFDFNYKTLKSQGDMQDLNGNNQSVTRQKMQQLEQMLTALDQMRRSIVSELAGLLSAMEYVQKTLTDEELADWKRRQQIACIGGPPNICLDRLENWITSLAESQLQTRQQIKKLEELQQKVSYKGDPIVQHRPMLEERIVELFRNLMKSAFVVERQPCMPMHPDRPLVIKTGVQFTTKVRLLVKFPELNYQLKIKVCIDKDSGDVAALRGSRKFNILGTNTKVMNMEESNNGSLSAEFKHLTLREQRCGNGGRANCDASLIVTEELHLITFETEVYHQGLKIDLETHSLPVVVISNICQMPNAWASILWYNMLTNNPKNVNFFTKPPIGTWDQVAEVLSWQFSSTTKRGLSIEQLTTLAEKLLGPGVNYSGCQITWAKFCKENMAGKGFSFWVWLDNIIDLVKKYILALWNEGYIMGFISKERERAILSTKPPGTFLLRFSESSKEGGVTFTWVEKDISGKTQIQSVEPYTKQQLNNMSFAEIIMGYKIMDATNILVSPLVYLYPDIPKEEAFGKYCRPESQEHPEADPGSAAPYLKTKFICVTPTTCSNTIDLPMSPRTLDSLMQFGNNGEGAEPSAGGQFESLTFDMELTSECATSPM
UniProt Q9UHP3: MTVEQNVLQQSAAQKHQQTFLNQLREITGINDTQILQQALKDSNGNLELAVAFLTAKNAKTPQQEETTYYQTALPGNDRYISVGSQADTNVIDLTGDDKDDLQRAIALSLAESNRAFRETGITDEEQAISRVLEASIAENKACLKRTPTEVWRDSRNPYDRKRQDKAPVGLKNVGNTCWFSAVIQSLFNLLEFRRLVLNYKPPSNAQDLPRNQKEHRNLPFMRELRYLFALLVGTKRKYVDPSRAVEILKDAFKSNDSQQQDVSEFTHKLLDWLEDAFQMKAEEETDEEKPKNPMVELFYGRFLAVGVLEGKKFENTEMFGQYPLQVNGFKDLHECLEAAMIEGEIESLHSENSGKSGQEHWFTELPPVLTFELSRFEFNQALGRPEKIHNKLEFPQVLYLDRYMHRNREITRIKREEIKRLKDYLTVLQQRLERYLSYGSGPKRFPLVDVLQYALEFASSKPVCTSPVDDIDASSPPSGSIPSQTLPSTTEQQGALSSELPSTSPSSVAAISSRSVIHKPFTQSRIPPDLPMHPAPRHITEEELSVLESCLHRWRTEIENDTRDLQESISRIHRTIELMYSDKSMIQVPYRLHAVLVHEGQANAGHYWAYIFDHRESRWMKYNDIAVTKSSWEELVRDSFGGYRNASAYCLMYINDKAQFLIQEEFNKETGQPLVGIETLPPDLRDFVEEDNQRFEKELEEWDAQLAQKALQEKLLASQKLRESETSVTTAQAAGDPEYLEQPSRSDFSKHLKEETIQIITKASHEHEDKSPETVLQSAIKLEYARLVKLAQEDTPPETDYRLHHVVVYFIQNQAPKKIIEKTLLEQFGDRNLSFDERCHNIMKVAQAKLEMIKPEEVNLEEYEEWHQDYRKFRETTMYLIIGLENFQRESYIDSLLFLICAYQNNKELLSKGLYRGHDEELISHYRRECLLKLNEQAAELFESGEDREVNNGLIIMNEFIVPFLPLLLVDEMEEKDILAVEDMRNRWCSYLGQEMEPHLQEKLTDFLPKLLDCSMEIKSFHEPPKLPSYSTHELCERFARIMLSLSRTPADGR

What was measured:
[1] = biological target: HA-STAT3 (signal transducer and activator of transcription 3), wild type (UniProt P40763); assay: co-IP; 293T cells transfected with Flag-USP25 and HA-STAT3 (wild type or point mutants); IP lysis buffer, protein A/G agarose beads and the indicated antibodies (IP-Flag, IP-HA), western blot; one panel with or without lambda protein phosphatase
[2] = biological target: Flag-USP25 (ubiquitin-specific protease 25) (UniProt Q9UHP3); assay: as above
[3] = biological target: endogenous USP25 (human (endogenous in NCM460)) (UniProt Q9UHP3); assay: co-IP; endogenous proteins, NCM460 cells lysed in IP lysis buffer; protein A/G agarose beads, IP-USP25 and IP-STAT3, western blot
[4] = biological target: endogenous STAT3 (human (endogenous in NCM460 and 293T)) (UniProt P40763); assay: as above

binding [2]	Substance	further results
–	Flag-USP25 (ubiquitin-specific protease 25) (from UniProt Q9UHP3 1-1055) (enzyme)	binding [1]: binds
binds	HA-STAT3 (signal transducer and activator of transcription 3), wild type (from UniProt P40763 1-770)	–
binds	HA-STAT3-S521A (from UniProt P40763 1-770)	–
binds	HA-STAT3-S727A (from UniProt P40763 1-770)	–
binds	HA-STAT3-T516A (from UniProt P40763 1-770)	–
–	endogenous STAT3 (from UniProt P40763 1-770)	binding [3]: binds
–	endogenous USP25 (from UniProt Q9UHP3 1-1055) (enzyme)	binding [4]: binds
